No constants are given. Whether binding was seen depends on the method and setting. Binding seen in cells or lysates may run through a third protein. Some results given as binding are weak or reduced against the parent protein; the word gives no strength.
Molecular target: wild-type KIBRA expressed in MDA-MB-231 cells for co-immunoprecipitation (UniProt Q8IX03)
Test: co-IP; MDA-MB-231 cells expressing wild-type or mutated KIBRA; which protein was precipitated is not told

Sequences of proteins named here, by UniProt entry; tags and fusion partners are left off.
UniProt Q8IX03: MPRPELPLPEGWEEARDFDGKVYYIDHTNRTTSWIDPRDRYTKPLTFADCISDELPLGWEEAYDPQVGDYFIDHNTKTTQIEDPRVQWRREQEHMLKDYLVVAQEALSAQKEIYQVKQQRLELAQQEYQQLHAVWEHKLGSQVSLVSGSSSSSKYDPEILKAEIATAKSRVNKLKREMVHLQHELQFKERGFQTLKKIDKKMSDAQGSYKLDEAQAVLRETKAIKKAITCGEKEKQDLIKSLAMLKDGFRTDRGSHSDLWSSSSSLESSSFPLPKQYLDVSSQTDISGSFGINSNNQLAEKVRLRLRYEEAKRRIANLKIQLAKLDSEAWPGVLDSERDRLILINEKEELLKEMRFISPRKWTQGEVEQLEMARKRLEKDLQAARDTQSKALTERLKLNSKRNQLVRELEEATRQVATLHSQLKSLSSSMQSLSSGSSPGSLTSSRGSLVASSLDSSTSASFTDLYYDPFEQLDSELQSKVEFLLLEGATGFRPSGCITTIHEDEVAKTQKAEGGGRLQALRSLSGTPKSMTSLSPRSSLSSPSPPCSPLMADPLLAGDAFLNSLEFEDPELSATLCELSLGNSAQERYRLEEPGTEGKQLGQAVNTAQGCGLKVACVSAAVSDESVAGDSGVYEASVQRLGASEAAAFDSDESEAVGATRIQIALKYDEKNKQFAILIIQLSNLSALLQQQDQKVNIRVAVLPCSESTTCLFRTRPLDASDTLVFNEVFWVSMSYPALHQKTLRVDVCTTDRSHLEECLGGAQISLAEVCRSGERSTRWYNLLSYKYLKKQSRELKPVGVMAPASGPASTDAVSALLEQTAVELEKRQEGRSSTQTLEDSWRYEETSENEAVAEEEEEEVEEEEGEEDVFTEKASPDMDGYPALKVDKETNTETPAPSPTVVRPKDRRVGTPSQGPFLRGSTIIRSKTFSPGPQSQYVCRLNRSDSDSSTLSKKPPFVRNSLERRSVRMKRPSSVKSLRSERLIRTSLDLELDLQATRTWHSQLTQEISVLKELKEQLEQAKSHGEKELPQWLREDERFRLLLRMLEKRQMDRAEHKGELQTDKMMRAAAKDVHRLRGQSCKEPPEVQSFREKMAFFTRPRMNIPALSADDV

binding: binds
B1: PTPN14 (protein tyrosine phosphatase non-receptor 14) (enzyme, UniProt Q15678 1-1187)
chain: MPFGLKLRRTRRYNVLSKNCFVTRIRLLDSNVIECTLSVESTGQECLEAVAQRLELRETHYFGLWFLSKSQQARWVELEKPLKKHLDKFANEPLLFFGVMFYVPNVSWLQQEATRYQYYLQVKKDVLEGRLRCTLDQVIRLAGLAVQADFGDYNQFDSQDFLREYVLFPMDLALEEAVLEELTQKVAQEHKAHSGILPAEAELMYINEVERLDGFGQEIFPVKDNHGNCVHLGIFFMGIFVRNRIGRQAVIYRWNDMGNITHNKSTILVELINKEETALFHTDDIENAKYISRLFATRHKFYKQNKICTEQSNSPPPIRRQPTWSRSSLPRQQPYILPPVHVQCGEHYSETHTSQDSIFHGNEEALYCNSHNSLDLNYLNGTVTNGSVCSVHSVNSLNCSQSFIQASPVSSNLSIPGSDIMRADYIPSHRHSAIIVPSYRPTPDYETVMRQMKRGILHTDSQSQSLRNLNIINTHAYNQPEDLVYSQPEMRERHPYTVPYGPQGVYSNKLVSPSDQRNPKNNVVPSKPGASAISHTVSTPELANMQLQGSHNYSTAHMLKNYLFRPPPPYPRPRPATSTPDLASHRHKYVSGSSPDLVTRKVQLSVKTFQEDSSPVVHQSLQEVSEPLTATKHHGTVNKRHSLEVMNSMVRGMEAMTLKSLHLPMARRNTLREQGPPEEGSGSHEVPQLPQYHHKKTFSDATMLIHSSESEEEEEEAPESVPQIPMLREKMEYSAQLQAALARIPNKPPPEYPGPRKSVSNGALRQDQASLPPAMARARVLRHGPAKAISMSRTDPPAVNGASLGPSISEPDLTSVKERVKKEPVKERPVSEMFSLEDSIIEREMMIRNLEKQKMAGLEAQKRPLMLAALNGLSVARVSGREENRVDATRVPMDERFRTLKKKLEEGMVFTEYEQIPKKKANGIFSTAALPENAERSRIREVVPYEENRVELIPTKENNTGYINASHIKVVVGGAEWHYIATQGPLPHTCHDFWQMVWEQGVNVIAMVTAEEEGGRTKSHRYWPKLGSKHSSATYGKFKVTTKFRTDSVCYATTGLKVKHLLSGQERTVWHLQYTDWPDHGCPEDVQGFLSYLEEIQSVRRHTNSMLEGTKNRHPPIVVHCSAGVGRTGVLILSELMIYCLEHNEKVEVPMMLRLLREQRMFMIQTIAQYKFVYQVLIQFLQNSRLI

— PMC5873529
